# Measured values reported in PubChem BioAssay AID2685 (National Center for Advancing Translational Sciences (NCATS), 2010).
# The other results are listed elsewhere or left out. Further columns of the screen follow, without active or inactive calls. Compounds called inactive in the main read-out are mostly missing here. Potencies come from curve fits of mixed quality, noted in brackets.
# Experiment: qHTS Assay for Lipid Storage Modulators in Drosophila S3 Cells;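 as to cell number change: cells counted by Cell Tracker Red CMTPX staining in the red channel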
# Details: BODIPY lipid droplet fluorescence, 18-24 h; for cell number change: measured here: cell count max response, cells fed with added oleic acid
# Method in brief: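 Drosophila S3 cells got compounds at several concentrations plus oleic acid (400 uM solution). Laser-scanning cytometry with 488 nm excitation read lipid droplets at 500-530 nm and cells at 575-640 nm. Percent activity was relative to 20 uM Triacsin C.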
# [1] = measured here: cell number channel AC50, cells fed with added oleic acid
# [2] = measured here: lipid fluorescence (Fed channel) AC50, cells fed with added oleic acid
SMILES,AC50 [1],AC50 [2],cell number change [%]
COc1ccc(NC(=O)Nc2sc(NS(=O)(=O)c3ccccc3)nc2C)cc1,"0.58 µM [falling, full curve]","2.31 µM [falling, partial curve]",
CC(C)OC(=O)c1ccc(NC(=O)c2cncc(Br)c2)cc1,,,-24.3
CN(C)C(=O)CSc1nnc(Cc2ccccc2)n1CC1CCCO1 (configuration not stated),,"1.64 µM [falling, full curve, poor fit]",-22.9
Cc1ccc2nc(SCC(=O)Nc3ccc(F)cc3)nc(=O)n2c1,,,0.402
CCOc1ccc(NC(=O)c2ccc(NC(=S)NC3CCCCC3)cc2)cc1,,,1.91
Cc1ccc2nc3c(cc(C(=O)NCCN4CCOCC4)c(=N)n3CCCN3CCOCC3)c(=O)n2c1,,,14.1
COc1ccc2[nH]c(C(=O)NCc3ccc4c(c3)OCO4)cc2c1,"0.164 µM [rising, full curve, poor fit]","0.291 µM [rising, full curve]",1.22
c1ccc(-c2nnc(N3CCN(c4ccccc4)CC3)nc2-c2ccccc2)cc1,,"0.517 µM [falling, full curve, poor fit]",-1.03
COC(=O)c1cc2c(C)[nH]c(C)c2cc(C(=O)OC)c1=O,,"1.46 µM [rising, partial curve, poor fit]",26.1
Cc1cc(=O)oc2c(C)c(OCC(=O)N3CCN(C(=O)C4COc5ccccc5O4)CC3)ccc12 (configuration not stated),,"23.1 µM [rising, single point]",-10.6
CCOC(=O)C(NC(=O)CC)(Nc1ccccc1OC)C(F)(F)F (configuration not stated),,"3.66 µM [falling, full curve]",-7.26
O=c1oc2ccc(Cl)cc2nc1/C=C(\O)c1cccs1,,"2.31 µM [rising, single point]",-19.6
COc1ccccc1CC(NC(C)=O)C(=O)N1CCN(C(=O)Nc2ccccc2Cl)CC1 (configuration not stated),"4.11 µM [rising, partial curve]",,41.4
COc1cccc(CNCc2ccccc2OC)c1,,,24.6
C=CCNc1nc(Nc2ccc([N+](=O)[O-])cc2)nc(OCC)n1,,"1.03 µM [rising, full curve]",12.2
COc1cc2c(c(O)c1OC)-c1c(cc(OC)c(OC)c1O)[C@@H](OC(=O)c1ccccc1)[C@@](C)(O)[C@@H](C)[C@@H]2OC(C)=O,,"16.4 µM [falling, single point]",-20.1
O=C(COC(=O)c1cc(NS(=O)(=O)c2cccs2)ccc1O)Nc1ccccc1,,"13 µM [rising, single point]",14.6
Cc1ccc(C(C)C)c(OCC(=O)N/N=C/c2cccn2C)c1,,,-8.32
CCNC(=S)N1CCN(CCN=CC2=C(O)CC(c3cccs3)CC2=O)CC1 (configuration not stated),,"2.06 µM [falling, partial curve]",12.7
CC(C)CCOc1ccc(/C=N/N2C(=O)CSC2=S)cc1,"29.1 µM [rising, single point]","5.8 µM [rising, partial curve]",85.9
N#Cc1cc2c(nc1SCC(N)=O)CCCCC2,,"5.17 µM [rising, full curve]",25.6

SMILES,AC50 [1],AC50 [2],cell number change [%]
O=C(CCS(=O)(=O)c1ccccc1)Nc1ccc(-c2nc3ccccc3s2)c(O)c1,,,-10.4
COc1ccc(-c2ccc(SCC(=O)NCc3ccco3)nn2)cc1OC,"0.461 µM [rising, full curve, poor fit]",,8.8
N/C(=N\c1nc(C(F)(F)F)cc(=O)[nH]1)Nc1ccc(Cl)cc1,"16.4 µM [falling, single point]","16.4 µM [falling, single point]",-43.7
Cn1cc([N+](=O)[O-])c(C(=O)Nc2cnn(Cc3ccc(F)cc3)c2)n1,,"5.17 µM [rising, single point]",2.44
Cc1cc(C)c(S(=O)(=O)N2CCCCC2CCNC(=O)C(=O)NCc2ccco2)c(C)c1 (configuration not stated),"23.1 µM [falling, partial curve, poor fit]","23.1 µM [falling, single point]",-38.7
COc1cccc2[nH]c3c(N4CCC(C(N)=O)CC4)ncnc3c12,,,0.999
O=C(Nc1cccc(Cl)c1N1CCOCC1)c1cccs1,,"6.51 µM [falling, single point]",-11.5
CCc1cc(C(=O)NCCN(C)C)cs1,,"0.651 µM [falling, full curve, poor fit]",-16.5
CCN(CC(=O)Nc1c(F)cccc1F)C(=O)Cc1ccc(OC)c(S(=O)(=O)N2CCOCC2)c1,,,24
Cc1c(C(=O)c2ccc([N+](=O)[O-])cc2)c(=O)n(C)c(=O)n1C,,"8.2 µM [falling, partial curve]",-25.1
NC(=O)c1ccccc1NC(=O)/C=C/c1c(Cl)cccc1Cl,,,-8.19
CCn1c(N2CCN(C(=O)C34CC5CC(CC(C5)C3)C4)CC2)nc2ccccc21,"3.26 µM [falling, full curve]","29.1 µM [falling, single point]",-54.9
CCOC(=O)c1[nH]c2c(c1-c1ccc(OC)cc1)C(=O)CC(c1ccc(OC)c(OC)c1)C2 (configuration not stated),,"1.3 µM [rising, full curve]",15.9
CCNC(=O)CC1C(=O)N(c2ccc(C)cc2)C(=O)N1CCc1sccc1C (configuration not stated),,"0.517 µM [falling, full curve]",-25.8
Oc1ccc[n+](CC(O)c2ccccc2)c1 (configuration not stated),,"6.51 µM [falling, single point]",1.09
COC(=O)C1=C(C)NC(C)=C(C(=O)OCC2CCCO2)C1c1cccc(Cl)c1 (configuration not stated),,"6.51 µM [rising, single point]",-8.8
Cc1ccc(C)c(OCC(=O)NNC(=O)c2ccc(NC(=O)C3CC3)cc2)c1,,,21.2
COC(=O)c1ccc(NC(=O)Nc2ccccc2F)cc1,"2.06 µM [falling, partial curve, poor fit]",,5.41
Cc1ccc(-c2nc3ccccn3c2Nc2ccccc2)o1,,"5.17 µM [rising, single point]",
Cn1c(/C=N/Nc2nc3ccccc3[nH]2)nc2ccccc21,"20.6 µM [falling, single point]","29.1 µM [falling, single point]",-106
CCN1CCN(C(=O)c2ccc3c(c2)c(C)c(C)n3Cc2ccccc2)CC1,,"0.82 µM [falling, single point]",-0.645

# Part of the list above in order of number of heavy atoms, ascending.
SMILES,AC50 [1],AC50 [2],cell number change [%]
N#Cc1cc2c(nc1SCC(N)=O)CCCCC2,,"5.17 µM [rising, full curve]",25.6
COc1cccc2[nH]c3c(N4CCC(C(N)=O)CC4)ncnc3c12,,,0.999
CN(C)C(=O)CSc1nnc(Cc2ccccc2)n1CC1CCCO1 (configuration not stated),,"1.64 µM [falling, full curve, poor fit]",-22.9

# Following part

SMILES,AC50 [1],AC50 [2],cell number change [%]
Cc1cc(C)c2c(n1)nn1c(N3CCN(c4ccccn4)CC3)cc(C)nc21,,"4.11 µM [rising, partial curve]",7.94
O=C(CSc1cccc[n+]1[O-])N1CCCc2ccccc21,"0.103 µM [rising, full curve, poor fit]","6.51 µM [rising, partial curve, poor fit]",6.84
NNC(=O)C(=O)Nc1ccc(Cl)c(Cl)c1,"2.31 µM [rising, full curve, poor fit]","0.517 µM [rising, full curve, poor fit]",40.6
Cc1nnc(NC(=O)CCNC(=O)c2ccccc2Cl)s1,"0.0206 µM [rising, partial curve, poor fit]","0.00461 µM [rising, full curve, poor fit]",14.4
O=C(CCCN1C(=O)c2cccnc2C1=O)Nc1ccccc1F,"0.411 µM [falling, full curve]","0.517 µM [falling, full curve]",-37
Fc1cccc2sc(Nc3nc4cc5c(cc4s3)OCO5)nc12,,,-5.94
CCOc1ccc(CCNC(=O)CCC(=O)N2CCOc3ccc(C)cc32)cc1OCC,,"14.6 µM [falling, partial curve]",-22.5
Cc1c(CC(=O)O)c(=O)oc2cc3occ(-c4ccc(F)cc4)c3cc12,,"0.651 µM [falling, single point]",1.22
Cc1cccc(N(C(=O)CNC(=O)c2cccs2)C(C(=O)NC2CCCC2)c2ccncc2)c1 (configuration not stated),,,-9.21
CN(C)CCOc1ncnc2c1oc1ccccc12,"3.66 µM [falling, full curve]","3.66 µM [falling, full curve]",-55.8
CCC(CC)C(=O)NCCCN1CCOCC1,,"0.146 µM [falling, full curve]",-19.5
Fc1cccc(F)c1CN1CCN(c2ncccn2)CC1,,"0.206 µM [falling, full curve, poor fit]",-4.99
C=CCn1c(SCC(=O)N(CC)CC)nc(O)cc1=O,"0.517 µM [falling, full curve, poor fit]","29.1 µM [falling, single point]",-10.3
CCOC(=O)/C(=C/C=C/c1ccccc1)NC(=O)c1ccccc1,"23.1 µM [rising, single point]",,34.3
CC(C)(CNC(=O)c1ccc(NS(=O)(=O)c2ccc(F)cc2)cc1)N1CCOCC1,"0.651 µM [falling, single point]","7.31 µM [falling, partial curve]",-10.5
CCc1ccc(S(=O)(=O)N2CC(=O)Nc3ccccc32)cc1,"0.651 µM [falling, single point]",,6.83
Cc1cc(Nc2ccc(F)cc2)nc(N)n1,,"6.51 µM [rising, single point]",-9.62
c1ccc(CCn2nnnc2C(c2cccnc2)N2CCOCC2)cc1 (configuration not stated),,"29.1 µM [falling, partial curve, poor fit]",-2.08
c1ccc2c(c1)CC/C2=N/Nc1nc2ccccc2[nH]1,"18.4 µM [falling, single point]","8.2 µM [falling, single point]",-54.1
